Laboratory results from patent US20230151108A1 (UCB, published 2023).
No constants are given. Whether binding was seen depends on the method and setting. Some entries that bind do so weakly or less than the wild type.

Sequences of proteins named here, by UniProt entry; tags and fusion partners are left off. A change or cut given only in a name is not applied to a line headed by its entry.
UniProt P21926: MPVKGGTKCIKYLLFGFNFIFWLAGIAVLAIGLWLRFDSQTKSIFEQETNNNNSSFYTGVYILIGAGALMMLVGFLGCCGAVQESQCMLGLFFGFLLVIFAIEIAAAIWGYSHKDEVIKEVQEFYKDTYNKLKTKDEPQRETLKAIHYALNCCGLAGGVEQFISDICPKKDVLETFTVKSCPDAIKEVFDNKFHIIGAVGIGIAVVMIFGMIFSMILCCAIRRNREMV

Columns and labels:
[1] = biological target: recombinant human CD9 long extracellular loop 2-human Fc fusion protein (10015-CD, R&D Systems) (human) (UniProt P21926); experiment: BLI (Octet RED384), CD9 loop 2-Fc on AHC biosensors
[2] = biological target: recombinant human CD9 long extracellular loop 2-human Fc fusion protein (10015-CD, R&D Systems) (human) (UniProt P21926); experiment: BLI (Octet RED384), CD9 loop 2-Fc on AHC biosensors, Fab-Y at 10 µg/mL

B1: anti-CD9 Fab-Y 7272 (Fab, V domains shown)
VH: QSLEESGGRLVTPGTPLTLTCTVSGFSLSSYAMGWVRQAPGKGLEWIGAIGSITATGYARWAKGRFSISKTSTTVDLKMTSPTTEDTATYFCAREIYVGSAYAFDIWGPGTLVTVSS
VL: AYDMTQTPASVEVAVGDTVTIKCQASQSISNYLAWYQQKPGQPPKLLIYLASTLASGVPSRFKGSGSGTEFTLTISDLECADAATYYCQQGYIDNVNKGFGGGTEVVVK
notes: Tested as Fab-Y: a Fab whose CH1 is joined by a peptide linker to the GCN4 peptide (clone 7P14P); also called VR7272
binding [1]: binds | binding [2]: binds
